Results from patent US20170044264A1.
These are yes or no findings as the source states them, for the method shown. Some results given as binding are weak or reduced against the parent protein; the word gives no strength. One block for each binder: values may come before it.

Chains of the proteins cited; added tags and fusions are not shown. Lines headed by an entry give the natural chain unless they say otherwise; changes in a name come on top.
UniProt P48023: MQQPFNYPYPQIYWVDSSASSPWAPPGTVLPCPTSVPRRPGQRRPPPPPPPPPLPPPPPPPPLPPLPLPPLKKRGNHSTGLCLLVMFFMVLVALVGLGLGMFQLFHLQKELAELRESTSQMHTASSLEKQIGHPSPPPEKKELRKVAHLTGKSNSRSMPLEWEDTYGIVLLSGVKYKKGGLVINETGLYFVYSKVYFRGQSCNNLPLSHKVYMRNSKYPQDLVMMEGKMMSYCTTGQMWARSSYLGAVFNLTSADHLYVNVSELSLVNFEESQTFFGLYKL

Key:
human CD95L (human) [1] = target: human CD95L (human) (UniProt P48023); assay: IHC on CD95L-positive and CD95L-negative glioblastoma sections
[2] = target: T1, synthetic N-terminal peptide encoding the first 21 aa of human CD95L (CD95L_NT 1-21) (human); assay: ELISA on immobilised CD95L-NT_1-21 peptide; confirmed by competition with the specific peptide
T1 sequence (peptide): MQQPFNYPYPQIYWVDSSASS

human CD95L (human) [3] = target: human CD95L (human) (UniProt P48023); assay: IHC-based screening
human CD95L (human) [4] = target: human CD95L (human) (UniProt P48023); assay: IHC on human tonsil sections, with and without competing peptide CD95L-NT_1-21
human CD95L (human) [5] = target: human CD95L (human) (UniProt P48023); assay: IHC on human tonsil sections (subset of plasma cells)

binding (human CD95L (human) [1]): binds
binding [2]: binds
B1: recombinant anti-CD95L rabbit monoclonal antibody (APG1181) (antibody, V domains shown)
VH: QEQLEESGGDLVKPGASLTLTCTASGFSFSSSAWICWVRQAPGKGLEWIACIFTGNSDITIYANWAKGRSTISRTSSTTVTLQVTSLTAADTATYFCARNLAATKLWGPGTLVTVSS
VL: LVMTQTPASVSAAVGGTVTISCQASQSITDQLSWYQHQPGQPPKLLIYRASTLASGVPSRFSGSGSETEFSLTISGLQCADAATYYCLGVHGYSSDDAISFGGGTEVVVKG

binding (human CD95L (human) [3]): binds
binding (human CD95L (human) [1]): binds
binding (human CD95L (human) [4]): binds
binding (human CD95L (human) [5]): binds
binding [2]: binds
B2: anti-CD95L rabbit monoclonal antibody purified from the supernatant of rabbit hybridoma clone 24-8 (antibody, V domains shown)
VH: B1 VH
VL: B1 VL
